Data as given in the supplement of paper PMC5949888.
Most values lie at the floor of the assay. Slopes are relative: functional sequences can read slightly below zero.

Each substance was assayed on Saccharomyces cerevisiae PS128 hsf1 delta, HSF1(1-493) fusion (assay: growth estimate (transactivation domain function in HSF1 fusion, heat-shock survival) (a.u. (slope of normalised read count over time)); higher = stronger growth at 37°C, i.e. more transactivation activity). Details: library: random library.

Substance | growth estimate
YRTVAIVATKTGVLRIEDGE | < -0.25
LSWFFLADVENSDLDTEGNG | 0.98
TPNSST | < -0.25
VLAPGCI | -0.202
PVQLQRRPDTTGRPAQTTT | < -0.25
EGNFALCWCQNGFRRSQVST | < -0.25
YASVWV | < -0.25
VKGNAPQALVESVWYAVRKV | < -0.25
WSGTSTRCGGYMGRYLCNRM | < -0.25
SVRETRWHLLPQEMILRGPD | < -0.25
ISSYCGTQSVYILDVRLVQA | < -0.25
EPPDLLARIQTLHYARCKEV | < -0.25
GCYT | < -0.25
TLSMVQMDIREGRYSRGASP | < -0.25
YWV | 0.0262
QQGRTRFLRRWRPDRSHVSR | < -0.25
VEGLGATGTRWYG | < -0.25
CGGCISDISG | < -0.25
GWEARTPSLARYEDIPCLVL | < -0.25
KSVSISAKMRGTNCASPLCP | < -0.25
LALVKYRED | < -0.25
FVKNSLAPVR | < -0.25
LPGPGDWVSA | < -0.25
PPDRVARMLKSGTRG | < -0.25

Substance | growth estimate
GEPLYSMKARVGTDRHSL | < -0.25
LKRKGGRACVEQDYVGNPVS | < -0.25
RSTGLEISYRRDS | < -0.25
AASSTPFYDIQE | < -0.25
ESCLCNAK | < -0.25
QELTIRGC | < -0.25
TSLLKWAHNAL | < -0.25
ITLNAKTGNDW | < -0.25
GGGLVCGP | < -0.25
RRQT | < -0.25
NMDNWWDRSRWVFGAQVMLV | < -0.25
MLYGWVRHPYRRWLRLQRRL | < -0.25
ETSSWGRD | < -0.25
LCLNPRHNSRIFYPRA | < -0.25
QLNYWFC | < -0.25
KRTRLRPRHRVPMCYMETDM | < -0.25
VCSVINRTATETSSTPPLKW | < -0.25
VVLRSISGGNSIQSYGI | < -0.25
FSVCRDESTSRSVL | < -0.25
RAWAVHHRTLWLECVGTGLD | < -0.25
HGP | < -0.25
RLIQWRLSGAGHWIAKNPAR | < -0.25
SDLGA | < -0.25
FWTNVVTIRGVQSRCDASSL | < -0.25

Substance | growth estimate
FWQLDTLRGSLSVRWV | < -0.25
DAVISAVSIADAAS | < -0.25
SACH | < -0.25
SDTLAQRCPSPDRMRQRPSA | < -0.25
VTVSEVPRC | < -0.25
HVEGLGVIVLRPHADWVQQR | < -0.25
SLPGHNSIQGRSIVRSRVPI | < -0.25
RRQKVIYVNHPGVRPALKAK | < -0.25
RLTQGHYRVGLNMFSICRA | < -0.25
PYPQSLHG | < -0.25
SNGLGRRLQ | < -0.25
PLGPPNFVSLPG | < -0.25
PCTIKAGPLCVWMENSGASA | < -0.25
RVIGMSEVEVWPDSVLLFLA | < -0.25
NGCLPGRMTFF | < -0.25
NIYRRSFHHYQSNGACWLVG | -0.246
GISPRCWGNGPRSACMKDRS | < -0.25
HFRTFTDNEWRLKSSL | < -0.25
GARVTALV | < -0.25
AVFCAATGYSDSP | < -0.25
PDGFVVPYFAVGVARYSR | < -0.25
RGFYYLMHLNEGTWQENSHR | < -0.25
PHGPP | < -0.253
RNGSFESRPSEN | < -0.25

Substance | growth estimate
IGVIAVVAGCWERLP | < -0.25
TKEWCLWQQKRGFSDCYTPR | < -0.25
ILQGRILWFLVLNLRCSASR | < -0.25
HRMPLREGHIRALTDVTQLC | < -0.25
DDWLWVHQGAGGRDNIYSYH | < -0.25
CPNKGARHVQTAPLDGSRAL | < -0.25
YPCLEVLWVRCDSCAHTLAR | < -0.25
SNRTGTC | < -0.25
RSGSSAY | < -0.25
CSYLDWKRN | < -0.25
RHAGLPWGRKLATSCEAPS | < -0.25
GEAFQ | < -0.25
REPKMGF | < -0.25
EATRERRSRYEQGHDFR | < -0.25
DLGKAIEVGRCAREDHLWGF | < -0.25
PSEYVLFRELNSGGNIRARR | < -0.25
HNDPTQKASSGANLRLRSVQ | < -0.25
NRPSECL | < -0.25
LRKSSDERGIRRLEGRNHEA | < -0.25
ADDQKSRSSWPPGSPALHHG | < -0.25
DLNRGVLSNEGAHSKIVLAS | < -0.25
LISTPIR | < -0.25
IAANMELKCR | < -0.25
TRRDITHAAVAVRRRK | < -0.25

Some of the entries so far, as a markdown table.

| Substance | growth estimate |
| --- | --- |
| PSEYVLFRELNSGGNIRARR | < -0.25 |
| HNDPTQKASSGANLRLRSVQ | < -0.25 |

Later entries.

Substance | growth estimate
GIELPVQKYGRVVRASYNAT | < -0.25
WPKERHD | < -0.25
ISASKLRSRFAGEYAVYLIL | < -0.25
GLWFGQRPQRLIRGETGRSA | < -0.25
REAENSQDDPCG | -0.25
RTVLIHGRCSPIAEAPRRWL | -0.242
VIM | 0.246
LSHLPGSVGRSFVRDYHKVA | < -0.25
VGPLWGMTSSTGSGVSSLFT | < -0.25
DSAGTSASQLALHGDAISDS | < -0.25
LMDPHGLLSRD | < -0.25
PQN | < -0.25
FDWCINVWRLKFNVCVGGSN | < -0.25
LRRRSATRGSSGAVNDKHVL | < -0.25
AANARACVVHN | < -0.25
PDVREWVP | < -0.25
ARREYLNRGYPWV | < -0.25
PGNRKGVSRVRHV | < -0.25
GLATTIIDGIIGNGQWMIPT | < -0.25
GRGEALWRHD | < -0.25
ASCYREEQDDNSGYDCNFIP | < -0.25
PAISVHHLGREWRHGRTSHA | < -0.25
VSLLGNFSPFWGL | 0.289
YYAP | < -0.25

Already shown: an excerpt of the list.
Substance | growth estimate
WPKERHD | < -0.25
ISASKLRSRFAGEYAVYLIL | < -0.25
GLWFGQRPQRLIRGETGRSA | < -0.25
REAENSQDDPCG | -0.25
RTVLIHGRCSPIAEAPRRWL | -0.242

More records:

Substance | growth estimate
MLHDSEICGHGAPNRDSCFF | < -0.25
YNRISDKGPMGRPTWSPEL | < -0.25
KCTSRLMDGSLGVTAWAIGS | < -0.25
DSPSSSGESVLQRA | < -0.25
IAWGFSGLGFTEDSRSCGWP | 0.156
GCKPLL | < -0.25
DCTLPEGLVEDERVRH | < -0.25
CAFSELTGKLNCRRPSPMPY | < -0.25
SVRRGRRLLNVFRLSLRAHG | < -0.25
VFQKAR | < -0.25
NGVKEVLASVE | < -0.25
DGFITRQLCVTGRCGAVPSR | < -0.25
VNGGVT | < -0.25
PCAPCSYGAFGIIKLWVQGQ | < -0.25
PHGDYRAFTFVSRTTPVNPS | < -0.25
TLVSNLASLLLYAHSSSSRP | < -0.25
VYDA | < -0.25
GVKARTRSAKVATRRALRR | < -0.25
HRLRLGLI | < -0.25
ATRYQAGLYKSSHYPRTMGV | < -0.25
DWGTVVV | < -0.25
SECATHRGAEYRGSRLTDVA | < -0.25
CRVGVIRRSGRVDVARDSVS | < -0.25
CIKAERID | < -0.25
